About 20 (1%) of roughly 1,600 compounds showed an effect of 50% or more. The list shows a part of the results.

The assay concerns T1, E. coli pLC1021 (luc-trpAt trans-translation reporter).
T1 construct: pLC1021 luc-trpAt reporter strain
On the set-up: species or system Escherichia coli pLC1021; luc-trpAt non-stop luciferase reporter; luminescence rises when trans-translation is inhibited; normalized to KKL-35 and DMSO. The note with it: reporter signal, KKL-35 = 100%; rise means trans-translation inhibition; 2 h, 20 µM. In a few lines: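 Luminescence (560 nm, 10 min after Bright-Glo) reports luciferase that escapes trans-translation tagging, measured after 2 h room-temperature treatment with 20 µM compound. Each plate was scaled between DMSO (negative) and 20 µM KKL-35 (positive) controls. Compounds scoring one standard deviation above the median counted as positive; at least two biological repeats.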
Turning to `Cc1ccc(-n2cc(CN(C)Cc3nccs3)c(-c3ccc(F)cc3)n2)cc1` [KKL-0475], the “% activation” value came out at 2%. As to `CCOC(=O)CSc1nnc(-c2ccc(Cl)cc2Cl)o1` [KKL-1192], the “% activation” value came out at 0%.

For the compound `Cc1ccc(C)c(OCC(=O)Nc2ccc(C(=O)OC(C)C)cc2)c1C` [KKL-0918], the “% activation” value stood at 0%. As for `O=C(CSc1nc2cc(Cl)ccc2o1)NCCc1ccccc1` [KKL-0837], the “% activation” value amounted to 0%. Then `COc1ccc(Cc2nnc(SCC(=O)NCCc3ccccc3)o2)cc1` [KKL-1092], with 6%; and `CCCCCn1c(=O)c(C(=O)Nc2nc3ccccc3[nH]2)c(O)c2ccccc21` [KKL-1004], with 7%; and `Cn1c(-c2ccccc2)cc2c3no[n+]([O-])c3ccc21` [KKL-0374], with 0%. Then `COc1ccc(C2(C)NN=C3Sc4ccccc4N32)cc1` (stereo not drawn) [KKL-0527], with 5%. The figure for `O=C(C=Cc1ccco1)N1CCN(Cc2ccc3c(c2)OCO3)CC1` [KKL-1821] is 0%; for `CSc1nsc(SCC(=O)Nc2ccc(OC(C)=O)cc2)n1` [KKL-1110] it is 0%; for `CCn1c(NCc2c(O)ccc3ccccc23)nc2ccccc21` [KKL-1357] it is 0%. In the case of `Cc1ccc2[nH]c(C3CCCNC3)c(-c3ccncc3)c2c1` (stereo not drawn) [KKL-1820], the “% activation” value is on record as 14%. The figure for `Cc1cccc(C2(O)CCN(Cc3[nH]c4ccccc4c3C)CC2)c1` [KKL-0557] is 2%. The figure for `O=C(COc1cccc2ccccc12)c1ccc(Cl)cc1` [KKL-1353] is 0%. The figure for `c1ccc(-c2nn(-c3ccccc3)cc2CNC2CCCc3c2cnn3-c2ccccn2)cc1` (stereo not drawn) [KKL-1169] is 0%; for `Cc1cc(/C=C/c2cccc(C(=O)O)c2)cc(Cl)c1OC[C@@H]1CCCN1C` [KKL-1850] it is 8%; for `CCOC(=O)c1sc(NC(=O)CNCc2ccccn2)c(C(=O)OCC)c1C` [KKL-0839] it is 0%.

In the case of `COc1ccc(-c2ccc(Nc3cccc(S(=O)(=O)CCNCCc4cccs4)c3)nc2)cn1` [KKL-1750], the “% activation” value is listed as 0%.

On to `Clc1ccc2c(c1)C1=C(C(c3ccncc3)O2)C(c2ccc(Br)cc2)n2ncnc2N1` (stereo not drawn) [KKL-0378], for which the “% activation” value amounted to 0%. The figure for `CCOc1ccccc1NC(=O)CN1CCC(C(=O)c2ccc(F)cc2)CC1` [KKL-1265] is 3%; for `CN(C)c1ccc(/C=C/c2nc3ccccc3c(=O)n2-c2ccccc2)cc1` [KKL-1244] it is 4%; for `CCOc1ccc(C2c3[nH]c4ccccc4c3CCN2Cc2cnc(SC)nc2)cc1` (stereo not drawn) [KKL-0480] it is 0%. As for `CC(C)c1noc(N2CCC(C(C)Oc3cnc(-c4ccc(S(C)(=O)=O)c(F)c4)cn3)CC2)n1` (stereo not drawn) [KKL-1810], the “% activation” value was determined as 0%. In the case of `Cc1oc2ccccc2c1CN(CCCn1ccnc1)Cc1cccc(F)c1` [KKL-0544], the “% activation” value was determined as 0%.

On to `CCC(C)c1ccc(O)c(NC(=S)NC(=O)c2cccnc2)c1` (stereo not drawn) [KKL-0436], for which the “% activation” value was 17%.

For `CCOc1ccc2nc3cc(N)ccc3c(N)c2c1` [KKL-1485], the “% activation” value was determined as 1%. The figure for `O=C(NC12CC3CC(CC(C3)C1)C2)N1CCN(c2cccc(C(F)(F)F)c2)CC1` [KKL-1309] is 3%; for `O=C(NC(=S)Nc1ccc(F)cc1)c1ccc(Br)cc1` [KKL-0408] it is 0%; for `N#Cc1ccc(NC(=O)CSc2ccc(Br)cc2)cc1` [KKL-1577] it is 0%. The figure for `CCOC(=O)C1(CC2CC2)CCN(Cc2ccc(OC)c(C)c2C)CC1` [KKL-1176] is 0%. Regarding `CCCCNCC1COc2ccc(OC)cc2C1=O` (stereo not drawn) [KKL-1732], the “% activation” value was 0%.

As to `c1ccc2sc(NC3=NCN(Cc4ccc5c(c4)OCO5)CN3)nc2c1` [KKL-0573], the “% activation” value worked out at 2%. On to `Cn1nc2c(c1C(=O)N1CCc3c([nH]c4ccccc34)C1c1ccccc1F)CCCC2` (stereo not drawn) [KKL-0491], for which the “% activation” value stood at 0%. The figure for `Cc1cccc(-n2cc(CN3CCN(c4ccncc4)CC3)c(-c3cccc(F)c3)n2)c1` [KKL-0498] is 0%; for `CCOc1ccc(-c2nc(CNCCc3ccc(F)cc3)cs2)cc1` [KKL-1803] it is 0%. The figure for `COC(=O)c1ccc(-c2nc(CN3CCC4(C=Cc5ccccc54)CC3)c(C)o2)cc1` [KKL-1167] is 5%; for `CC(C)n1cc(CN2CCC(C(=O)Nc3cccc(-c4cccc(Cl)c4)c3)CC2)cn1` [KKL-0628] it is 0%; for `Cc1ccc(CN(CCCn2ccnc2)Cc2cc3c(cc2Cl)OCO3)s1` [KKL-0509] it is 2%.

Consider `Cc1cc(C(C)(C)C)ccc1OCCCCn1ccnc1` [KKL-1326], for which the “% activation” value was 12%. Consider `CC1CN(c2ccc([N+](=O)[O-])cc2)CCN1C(=O)c1cccc(Br)c1` (stereo not drawn) [KKL-1355], for which the “% activation” value was determined as 0%. Take `CC(=O)c1cccc(Nc2cc(C)nc3c2ccc2ccccc23)c1` [KKL-0859]: the “% activation” value stood at 0%. Then `CCOC(=O)c1ccc(NC(=S)NC(=O)CCc2ccccc2)cc1` [KKL-1432], with 0%; and `COc1cccc(N2CCN(Cc3nc(N)nc(Nc4ccc(C)c(Cl)c4)n3)CC2)c1` [KKL-1239], with 0%; and `C=CCOc1ccc(CN2C[C@@H](CN(C)C)[C@H](c3ccnc(N4CCCC4)n3)C2)cc1` [KKL-0449], with 0%.

On to `O=C(Nc1ccc2c(c1)OCCO2)c1cccc2nc3ccccc3nc12` [KKL-0843], for which the “% activation” value was found to be 0%. For `O=C(NCCc1c[nH]c2ccccc12)c1cc2ccccc2oc1=O` [KKL-0841], the “% activation” value is on record as 0%. The figure for `Cc1ccc(C(=O)Nc2nc(C)c(C(=O)Nc3ccc4c(c3)CCC4)s2)cc1` [KKL-1668] is 0%; for `Cn1nc(-c2ccco2)cc1[C@H]1CN2CC[C@H]1C[C@@H]2COC(=O)Nc1cccc(C(F)(F)F)c1` [KKL-1589] it is 0%. Consider `Cc1ccc(-c2csc(Nc3ccc(N)cc3)n2)cc1` [KKL-0538], for which the “% activation” value came to 0%. Regarding `COC(=O)[C@@H]1Cc2c([nH]c3ccccc23)[C@@H]2C[C@H](NCCCn3ccnc3)C[C@@H](c3ccc(F)c(F)c3)N12` [KKL-1605], the “% activation” value was determined as 1%. The figure for `Cc1cc(NCCc2ccccc2)nc(NC(=N)Nc2ccc(Cl)cc2)n1` [KKL-1786] is 3%. The figure for `CC(=O)NC(=S)NNC(=O)c1ccc(-c2ccccc2)cc1` [KKL-0063] is 99%. The figure for `CCOC(=O)C1(CCc2ccccc2)CCN(C(=O)Nc2ccc(SC)cc2)CC1` [KKL-1179] is 2%; for `Nc1ccccc1Nc1ccc(Cl)cc1` [KKL-1846] it is 3%.

Values taken from publication PMC12548414.
